Data published in PubChem BioAssay AID2551 (National Center for Advancing Translational Sciences (NCATS), 2010).
Out of some 310,000 compounds screened, about 17,000 (5.5%) were called active. The shares of active, inactive and inconclusive entries below differ from those in the screen. Calls come from the whole dose curve; as a rule, active = well fitted inhibition curve with a large enough effect; inconclusive = small, poorly fitted or top-dose-only effect, or effect the other way; inactive = no such curve, though single readings can be large or run the other way. Where the call is inconclusive, the potency comes from a doubtful curve fit.

Amino acid sequences for entries named in this document (tags omitted). A change or cut given only in a name is not applied to a line headed by its entry.
UniProt P51450: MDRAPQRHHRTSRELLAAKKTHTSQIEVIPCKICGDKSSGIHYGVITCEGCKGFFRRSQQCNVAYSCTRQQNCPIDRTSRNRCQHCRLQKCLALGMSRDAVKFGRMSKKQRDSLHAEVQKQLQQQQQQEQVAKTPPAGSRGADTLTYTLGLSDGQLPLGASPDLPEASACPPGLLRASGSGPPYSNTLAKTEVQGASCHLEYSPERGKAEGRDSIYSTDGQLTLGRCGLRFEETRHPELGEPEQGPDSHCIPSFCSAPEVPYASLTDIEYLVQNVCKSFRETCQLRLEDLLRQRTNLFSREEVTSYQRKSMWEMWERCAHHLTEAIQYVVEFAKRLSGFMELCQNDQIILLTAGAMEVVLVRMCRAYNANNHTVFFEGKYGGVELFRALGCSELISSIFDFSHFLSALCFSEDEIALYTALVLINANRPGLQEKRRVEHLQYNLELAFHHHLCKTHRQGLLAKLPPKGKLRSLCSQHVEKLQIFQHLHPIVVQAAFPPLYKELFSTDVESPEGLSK

Target: Nuclear receptor ROR-gamma (Mus musculus) (UniProt P51450)
Assay: qHTS for inhibitors of ROR gamma transcriptional activity; note: nearly all actives have a fitted effect of over 60% in size
Details: Drosophila S2 Gal4-RORgamma UAS-luciferase reporter, 20 h; activity change, negative = inhibition: at 53.6 µM (top of the series)
How it was run: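 In this cell-based reporter format, copper sulfate (700 uM final) drives Gal4–ROR gamma fusion expression from a metallothionein promoter in Drosophila Schneider cells; compounds preincubated 1 hr, reporter read after 20 hr at ambient temperature.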
% is set by controls: 0 for no effect and ±100 for the full control effect; potency is the fitted concentration of half-maximal effect.

Question: With `CS(=O)(=O)N1CCC(C(=O)Nc2cccc(Br)c2)CC1` as the compound, how does the “activity change, negative = inhibition” value read?
Answer: inactive: -7.05%

Question: `Cc1cccc(/C=C(\c2nc3ccccc3[nH]2)S(=O)(=O)c2ccccc2)c1` was tested. Which Potency did it give?
Answer: inconclusive: 0.282 µM [inhibitor, full curve, poor fit]

Question: For `Cc1cc(C)c(C#N)c(SCCS(=O)(=O)Cc2ccccc2)n1`, which Potency is on record?
Answer: inconclusive: 35.5 µM [activator, single point]

Question: For `O=C(NCc1cccs1)c1ccc(Br)o1`, which “activity change, negative = inhibition” value is on record?
Answer: inactive: 5.95%

Question: Which Potency does the source give for `COc1ccc(NS(=O)(=O)c2ccc(OC)c(N(C)S(=O)(=O)c3ccc(Cl)cc3)c2)cc1` here?
Answer: inconclusive: 3.55 µM [activator, single point]

Question: `COc1ccc(C(=O)N/N=C/c2sc3ccccc3c2O)cc1` was tested. Which Potency did it give?
Answer: active: 2.24 µM

Question: With `COc1cccc(C(=O)N2CCN(S(C)(=O)=O)CC2)c1` as the compound, how does the Potency read?
Answer: inconclusive: 5.62 µM [inhibitor, single point]

Question: How did the Potency turn out when `Cc1ccc(S(=O)(=O)N2CCCOC2CNC(=O)C(=O)NCCCn2ccnc2)cc1` (stereo unspecified) was run?
Answer: inconclusive: 7.08 µM [activator, full curve]

Question: How did the “activity change, negative = inhibition” value turn out when `CCOC(=O)c1c(C)[nH]c(C(=O)COC(=O)CSC)c1C` was run?
Answer: inactive: -38.1%

Question: For `Cc1cc(C(=O)NNc2c(Cl)cccc2Cl)no1`, which Potency is on record?
Answer: inconclusive: 4.47 µM [activator, full curve, poor fit]

Question: Which “activity change, negative = inhibition” value does the source give for `COc1ccc(OC)c(Nc2ncnc3sc(-c4ccccc4)cc23)c1` here?
Answer: inactive: 15.3%

Question: For `CC(C)(C)OC(=O)CNC(=O)c1[nH]cnc1C(=O)N[C@@H](CCCCNC(=O)OC(C)(C)C)C(=O)OC(C)(C)C`, which Potency is on record?
Answer: inconclusive: 17.8 µM [inhibitor, single point]

Question: How did the Potency turn out when `COc1ccc2c(=O)c(C(=O)NCCc3ccccc3)c[nH]c2c1` was run?
Answer: inconclusive: 3.55 µM [activator, partial curve]

Question: For `C=CCc1ccccc1OCC(=O)NNC(=S)NCc1ccccc1`, which Potency is on record?
Answer: active: 1.41 µM

Question: For `CC(C)c1ccc(NS(=O)(=O)c2ccc(N3C(=O)CCC3=O)cc2)cc1`, which Potency is on record?
Answer: inconclusive: 31.6 µM [activator, single point]

Question: `O=C(OCC(=O)N1CCc2ccccc21)c1ccc[n+]([O-])c1` was tested. Which “activity change, negative = inhibition” value did it give?
Answer: inactive: 4.42%

Question: `COc1ccc2oc(C(=O)OCC(=O)NCCN3C(=O)CSC3=O)c(C)c2c1` was tested. Which Potency did it give?
Answer: inconclusive: 22.4 µM [activator, single point]

Question: For `Cc1cc2n(n1)C(c1cn(-c3ccccc3)nc1C)Nc1c(C)cccc1-2` (stereo unspecified), which Potency is on record?
Answer: inconclusive: 0.0126 µM [inhibitor, full curve, poor fit]

Question: With `CSc1nc2ccc(NC(=O)c3nn(C(C)C)c(=O)c4ccccc34)cc2s1` as the compound, how does the activity change, negative = inhibition read?
Answer: inactive: 4.33% [at 10 µM]

Question: For `O=C(NC(=S)Nc1cccc2cc(O)ccc12)c1ccccc1Br`, which Potency is on record?
Answer: inconclusive: 12.6 µM [inhibitor, single point]

Question: Which Potency does the source give for `CCN=c1scc(-c2ccc3c(c2)NC(=O)CO3)n1N=C1CCCC1` here?
Answer: inconclusive: 35.5 µM [inhibitor, single point]

Question: How did the Potency turn out when `Cc1cccc(C)c1NC(=S)NCCCN1CCCC1=O` was run?
Answer: inconclusive: 15.8 µM [inhibitor, single point]

Question: With `Cc1ccc(-n2cc(C(=O)c3ccccc3O)cn2)cc1` as the compound, how does the Potency read?
Answer: active: 11.2 µM

Question: `CCN(CC)c1nc2c(c(=O)n(C)c(=O)n2C)n1CC(=O)c1ccccc1` was tested. Which “activity change, negative = inhibition” value did it give?
Answer: inactive: 14.5%

Question: `Cc1cc(C)nc(N/N=C/c2sccc2C)n1` was tested. Which Potency did it give?
Answer: inconclusive: 15.8 µM [inhibitor, single point]

Question: Which “activity change, negative = inhibition” value does the source give for `CCOC(=O)C1CCN(C(=O)c2cccc(C(=O)N3CCC(C(=O)OCC)CC3)c2)CC1` here?
Answer: inactive: 8.9%

Question: `COc1ccc(N2CCN(C(=O)CCS(=O)(=O)c3ccc4c(c3)NC(=O)C(C)S4)CC2)cc1` (stereo unspecified) was tested. Which Potency did it give?
Answer: inconclusive: 10 µM [activator, partial curve, poor fit]

Question: `CC(=O)OC(C)CS(=O)(=O)c1ccccc1` (stereo unspecified) was tested. Which “activity change, negative = inhibition” value did it give?
Answer: inactive: -26.3%

Question: With `Cc1ccc(NC(=O)CSc2nc3ccccc3c(=O)n2CCCN2CCCCC2)cc1C` as the compound, how does the Potency read?
Answer: inconclusive: 25.1 µM [inhibitor, single point]

Question: Which Potency does the source give for `Clc1ccc(-c2nsc(N3CCOCC3)n2)c(Cl)c1` here?
Answer: inconclusive: 12.6 µM [inhibitor, single point]

Question: `CN1CCN(C(=O)c2cc(COc3ccccc3)on2)[C@@H](c2ccccc2)C1` was tested. Which Potency did it give?
Answer: inconclusive: 6.31 µM [activator, single point]

Question: For `CCNC(=S)NNC(=O)CSc1nc2ccccc2[nH]1`, which Potency is on record?
Answer: active: 3.98 µM

Question: For `O=C(NCc1ccco1)c1ccc(COc2ccccc2Cl)cc1`, which Potency is on record?
Answer: inconclusive: 35.5 µM [activator, single point]

Question: With `CC(=O)NC1C(=O)N(CCN2CCOCC2)c2ccc(F)cc21` (stereo unspecified) as the compound, how does the “activity change, negative = inhibition” value read?
Answer: inactive: 0.128%

Question: How did the Potency turn out when `CC(=O)NCCn1c(SCC(=O)NCC2CCCO2)nc2ccccc2c1=O` (stereo unspecified) was run?
Answer: inconclusive: 2.82 µM [activator, full curve, poor fit]

Question: How did the Potency turn out when `O=C1CCC(=O)N1OCCCCOc1ccccc1` was run?
Answer: inconclusive: 0.355 µM [activator, single point]

Question: `COc1ccccc1OCCCCN1CCCCC1` was tested. Which “activity change, negative = inhibition” value did it give?
Answer: inactive: -1.31%

Question: With `COc1ccc(/C=N/n2c(N)nc(-c3ccccc3)c2-c2ccccc2)cc1` as the compound, how does the Potency read?
Answer: inconclusive: 12.6 µM [inhibitor, single point]

Question: `C[C@@H](C[N+](C)(C)C)OC(N)=O` was tested. Which “activity change, negative = inhibition” value did it give?
Answer: inactive: 35.9% [at 16.9 µM]

Question: How did the Potency turn out when `CCc1cc(-c2n[nH]c(=S)n2-c2cccc(C)c2)cs1` was run?
Answer: active: 0.316 µM

Question: Which Potency does the source give for `CCN(CC)c1ccc(/C=N/NC(=S)NCc2ccccc2)cc1` here?
Answer: active: 1.26 µM

Question: For `CCOC(=O)N1CCN(C(=O)CS(=O)(=O)c2cn(Cc3ccc(Cl)cc3)c3ccccc23)CC1`, which Potency is on record?
Answer: inconclusive: 12.6 µM [activator, partial curve]

Question: How did the Potency turn out when `CCOCCOC(=O)c1[nH]c2c(c1C)C(=O)CC(c1cc(OC)c(OC)c(OC)c1)C2` (stereo unspecified) was run?
Answer: inconclusive: 11.2 µM [activator, single point]

Question: `C=CCn1c(=NC(=O)c2sc3ccccc3c2Cl)sc2cc(S(N)(=O)=O)ccc21` was tested. Which Potency did it give?
Answer: inconclusive: 35.5 µM [inhibitor, single point]

Question: With `CC(C)n1c(-c2ccccc2F)n[nH]c1=S` as the compound, how does the Potency read?
Answer: active: 3.16 µM

Question: How did the activity change, negative = inhibition turn out when `CCOC(=O)N/N=C1/C[C@@H](O)[C@@H](O)[C@@H]2[C@@H]3C(=O)N(Cc4ccc5c(c4)OCO5)C(=O)[C@H]3CC[C@H]12` was run?
Answer: inactive: -7.64% [at 10 µM]
